In PMC10628465 one finds binding data, which are given here for 9 molecules.

The chains behind the UniProt entries cited, without tags or fusion partners. Residues count along the entry.
UniProt P07355: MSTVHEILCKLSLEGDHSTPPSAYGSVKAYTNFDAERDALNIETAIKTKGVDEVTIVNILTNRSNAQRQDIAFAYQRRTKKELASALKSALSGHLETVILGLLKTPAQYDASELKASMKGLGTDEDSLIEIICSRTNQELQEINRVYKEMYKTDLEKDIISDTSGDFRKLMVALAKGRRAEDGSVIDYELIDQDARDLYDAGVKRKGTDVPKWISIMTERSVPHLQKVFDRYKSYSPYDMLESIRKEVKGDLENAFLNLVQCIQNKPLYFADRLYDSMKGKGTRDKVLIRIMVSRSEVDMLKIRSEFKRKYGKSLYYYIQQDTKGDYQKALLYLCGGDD
UniProt P11142: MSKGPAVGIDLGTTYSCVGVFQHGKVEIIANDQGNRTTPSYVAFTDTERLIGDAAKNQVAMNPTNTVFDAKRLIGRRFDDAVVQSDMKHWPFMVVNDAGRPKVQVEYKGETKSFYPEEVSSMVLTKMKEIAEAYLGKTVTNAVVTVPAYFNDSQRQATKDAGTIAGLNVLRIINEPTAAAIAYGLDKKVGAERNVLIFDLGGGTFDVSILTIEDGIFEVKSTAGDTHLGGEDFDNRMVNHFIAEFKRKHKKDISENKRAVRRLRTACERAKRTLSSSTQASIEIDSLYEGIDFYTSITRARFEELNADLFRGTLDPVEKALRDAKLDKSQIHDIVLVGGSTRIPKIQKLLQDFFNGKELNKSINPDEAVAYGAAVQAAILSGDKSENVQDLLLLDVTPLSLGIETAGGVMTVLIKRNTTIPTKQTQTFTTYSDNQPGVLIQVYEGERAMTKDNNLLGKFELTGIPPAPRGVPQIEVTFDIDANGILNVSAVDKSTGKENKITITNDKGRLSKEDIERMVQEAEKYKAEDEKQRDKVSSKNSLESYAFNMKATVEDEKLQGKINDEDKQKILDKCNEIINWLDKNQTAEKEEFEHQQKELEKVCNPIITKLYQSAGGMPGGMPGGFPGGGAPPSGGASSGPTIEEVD
UniProt P02751, residues 32-2477: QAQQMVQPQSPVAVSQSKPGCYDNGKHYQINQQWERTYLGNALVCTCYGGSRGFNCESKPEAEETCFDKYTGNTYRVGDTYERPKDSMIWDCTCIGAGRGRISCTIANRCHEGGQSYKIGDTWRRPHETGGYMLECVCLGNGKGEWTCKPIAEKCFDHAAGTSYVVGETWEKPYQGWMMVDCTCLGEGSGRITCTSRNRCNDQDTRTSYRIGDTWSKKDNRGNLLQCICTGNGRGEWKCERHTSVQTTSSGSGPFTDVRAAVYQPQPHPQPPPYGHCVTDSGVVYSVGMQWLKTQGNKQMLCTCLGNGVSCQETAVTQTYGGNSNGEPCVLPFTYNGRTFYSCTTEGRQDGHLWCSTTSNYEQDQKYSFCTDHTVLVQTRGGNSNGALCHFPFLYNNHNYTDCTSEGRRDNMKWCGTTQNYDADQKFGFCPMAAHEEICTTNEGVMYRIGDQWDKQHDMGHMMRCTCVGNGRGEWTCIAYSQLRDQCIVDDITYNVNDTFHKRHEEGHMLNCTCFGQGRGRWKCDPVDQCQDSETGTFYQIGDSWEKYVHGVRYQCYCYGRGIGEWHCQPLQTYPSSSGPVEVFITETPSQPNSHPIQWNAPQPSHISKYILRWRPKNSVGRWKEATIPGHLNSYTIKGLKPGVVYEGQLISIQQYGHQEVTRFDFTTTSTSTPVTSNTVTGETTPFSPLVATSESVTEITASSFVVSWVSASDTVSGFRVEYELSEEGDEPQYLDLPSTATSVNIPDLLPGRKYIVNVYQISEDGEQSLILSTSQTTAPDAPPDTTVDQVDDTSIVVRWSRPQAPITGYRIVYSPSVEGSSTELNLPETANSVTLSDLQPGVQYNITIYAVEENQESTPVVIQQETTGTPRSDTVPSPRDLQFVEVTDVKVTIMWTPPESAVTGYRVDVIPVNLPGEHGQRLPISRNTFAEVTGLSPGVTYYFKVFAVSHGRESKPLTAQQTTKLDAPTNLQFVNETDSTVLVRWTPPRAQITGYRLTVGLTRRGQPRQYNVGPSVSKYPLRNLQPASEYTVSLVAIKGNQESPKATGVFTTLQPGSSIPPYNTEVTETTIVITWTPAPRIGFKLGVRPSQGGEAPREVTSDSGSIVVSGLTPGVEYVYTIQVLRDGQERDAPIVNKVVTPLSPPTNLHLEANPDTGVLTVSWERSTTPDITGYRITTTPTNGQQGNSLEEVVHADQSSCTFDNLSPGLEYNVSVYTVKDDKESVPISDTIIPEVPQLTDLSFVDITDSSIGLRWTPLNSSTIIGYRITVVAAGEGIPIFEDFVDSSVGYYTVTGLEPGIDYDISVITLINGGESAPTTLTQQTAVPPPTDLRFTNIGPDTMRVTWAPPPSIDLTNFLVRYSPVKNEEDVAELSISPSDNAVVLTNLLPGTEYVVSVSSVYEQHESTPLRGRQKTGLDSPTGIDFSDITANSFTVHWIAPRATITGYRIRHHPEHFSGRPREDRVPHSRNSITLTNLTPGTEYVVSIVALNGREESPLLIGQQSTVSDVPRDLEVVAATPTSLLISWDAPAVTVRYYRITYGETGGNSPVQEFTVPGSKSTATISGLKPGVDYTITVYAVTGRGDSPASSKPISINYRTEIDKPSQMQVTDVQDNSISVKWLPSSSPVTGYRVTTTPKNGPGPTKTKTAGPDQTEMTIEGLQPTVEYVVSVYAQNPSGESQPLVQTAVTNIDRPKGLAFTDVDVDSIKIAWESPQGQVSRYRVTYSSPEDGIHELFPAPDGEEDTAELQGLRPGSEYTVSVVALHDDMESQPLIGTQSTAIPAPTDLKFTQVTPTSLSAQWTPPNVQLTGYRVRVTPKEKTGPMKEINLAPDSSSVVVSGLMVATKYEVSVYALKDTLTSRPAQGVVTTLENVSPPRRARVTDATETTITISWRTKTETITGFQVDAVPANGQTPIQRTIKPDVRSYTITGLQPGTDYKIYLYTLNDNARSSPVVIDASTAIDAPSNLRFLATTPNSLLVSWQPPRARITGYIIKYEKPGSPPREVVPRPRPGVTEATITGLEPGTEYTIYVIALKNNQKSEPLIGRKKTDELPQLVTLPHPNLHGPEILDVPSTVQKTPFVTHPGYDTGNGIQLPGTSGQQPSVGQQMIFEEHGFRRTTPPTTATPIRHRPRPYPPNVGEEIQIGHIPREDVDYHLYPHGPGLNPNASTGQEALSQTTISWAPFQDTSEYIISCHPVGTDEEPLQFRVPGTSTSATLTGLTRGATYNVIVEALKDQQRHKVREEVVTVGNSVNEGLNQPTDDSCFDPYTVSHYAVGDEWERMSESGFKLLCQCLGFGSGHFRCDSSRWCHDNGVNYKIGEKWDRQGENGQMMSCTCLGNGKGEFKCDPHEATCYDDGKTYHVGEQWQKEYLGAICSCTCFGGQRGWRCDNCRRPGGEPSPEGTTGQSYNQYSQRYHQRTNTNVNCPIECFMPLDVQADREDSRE
UniProt P07996, residues 19-1170: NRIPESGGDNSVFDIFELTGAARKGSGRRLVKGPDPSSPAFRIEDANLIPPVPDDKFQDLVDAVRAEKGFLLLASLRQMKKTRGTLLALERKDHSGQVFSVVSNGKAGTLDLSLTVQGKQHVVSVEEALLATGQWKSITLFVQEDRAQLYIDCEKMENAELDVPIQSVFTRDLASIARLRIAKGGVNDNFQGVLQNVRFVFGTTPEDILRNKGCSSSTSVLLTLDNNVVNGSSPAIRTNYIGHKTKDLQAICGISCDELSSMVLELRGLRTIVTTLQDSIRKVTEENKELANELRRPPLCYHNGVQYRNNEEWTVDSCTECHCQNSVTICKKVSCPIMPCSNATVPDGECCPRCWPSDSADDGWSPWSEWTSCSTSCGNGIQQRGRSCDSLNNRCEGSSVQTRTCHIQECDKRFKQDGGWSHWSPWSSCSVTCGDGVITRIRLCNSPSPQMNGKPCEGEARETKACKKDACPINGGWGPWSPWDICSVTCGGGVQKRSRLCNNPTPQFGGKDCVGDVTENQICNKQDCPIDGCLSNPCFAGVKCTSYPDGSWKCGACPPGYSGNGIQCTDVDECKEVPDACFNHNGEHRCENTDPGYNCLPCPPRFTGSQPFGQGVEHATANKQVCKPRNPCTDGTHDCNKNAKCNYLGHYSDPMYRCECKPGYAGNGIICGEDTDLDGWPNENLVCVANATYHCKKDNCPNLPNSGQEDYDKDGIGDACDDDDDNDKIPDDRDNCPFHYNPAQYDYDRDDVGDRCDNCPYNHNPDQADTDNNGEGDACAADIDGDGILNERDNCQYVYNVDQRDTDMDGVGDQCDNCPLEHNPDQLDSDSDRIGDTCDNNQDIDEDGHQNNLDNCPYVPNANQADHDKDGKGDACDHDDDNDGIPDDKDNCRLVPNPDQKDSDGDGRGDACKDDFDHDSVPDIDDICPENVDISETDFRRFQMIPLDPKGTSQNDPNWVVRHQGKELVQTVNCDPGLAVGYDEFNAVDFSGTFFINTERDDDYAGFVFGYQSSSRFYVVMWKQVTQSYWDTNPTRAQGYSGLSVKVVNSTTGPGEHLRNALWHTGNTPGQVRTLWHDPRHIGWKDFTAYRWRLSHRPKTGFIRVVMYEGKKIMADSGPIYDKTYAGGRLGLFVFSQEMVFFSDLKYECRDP
UniProt Q04695: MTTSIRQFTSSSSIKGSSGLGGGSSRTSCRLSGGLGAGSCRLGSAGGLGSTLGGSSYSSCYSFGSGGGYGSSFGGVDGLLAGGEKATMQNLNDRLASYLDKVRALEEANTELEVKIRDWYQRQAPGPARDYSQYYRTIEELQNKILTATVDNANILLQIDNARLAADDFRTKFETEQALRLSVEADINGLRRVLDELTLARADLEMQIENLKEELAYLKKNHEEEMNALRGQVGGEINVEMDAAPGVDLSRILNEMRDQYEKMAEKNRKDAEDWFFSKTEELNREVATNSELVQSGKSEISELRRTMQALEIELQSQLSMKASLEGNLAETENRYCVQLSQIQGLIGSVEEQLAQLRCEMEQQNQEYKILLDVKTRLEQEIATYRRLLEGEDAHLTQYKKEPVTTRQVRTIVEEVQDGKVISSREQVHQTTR
UniProt Q9UDY2: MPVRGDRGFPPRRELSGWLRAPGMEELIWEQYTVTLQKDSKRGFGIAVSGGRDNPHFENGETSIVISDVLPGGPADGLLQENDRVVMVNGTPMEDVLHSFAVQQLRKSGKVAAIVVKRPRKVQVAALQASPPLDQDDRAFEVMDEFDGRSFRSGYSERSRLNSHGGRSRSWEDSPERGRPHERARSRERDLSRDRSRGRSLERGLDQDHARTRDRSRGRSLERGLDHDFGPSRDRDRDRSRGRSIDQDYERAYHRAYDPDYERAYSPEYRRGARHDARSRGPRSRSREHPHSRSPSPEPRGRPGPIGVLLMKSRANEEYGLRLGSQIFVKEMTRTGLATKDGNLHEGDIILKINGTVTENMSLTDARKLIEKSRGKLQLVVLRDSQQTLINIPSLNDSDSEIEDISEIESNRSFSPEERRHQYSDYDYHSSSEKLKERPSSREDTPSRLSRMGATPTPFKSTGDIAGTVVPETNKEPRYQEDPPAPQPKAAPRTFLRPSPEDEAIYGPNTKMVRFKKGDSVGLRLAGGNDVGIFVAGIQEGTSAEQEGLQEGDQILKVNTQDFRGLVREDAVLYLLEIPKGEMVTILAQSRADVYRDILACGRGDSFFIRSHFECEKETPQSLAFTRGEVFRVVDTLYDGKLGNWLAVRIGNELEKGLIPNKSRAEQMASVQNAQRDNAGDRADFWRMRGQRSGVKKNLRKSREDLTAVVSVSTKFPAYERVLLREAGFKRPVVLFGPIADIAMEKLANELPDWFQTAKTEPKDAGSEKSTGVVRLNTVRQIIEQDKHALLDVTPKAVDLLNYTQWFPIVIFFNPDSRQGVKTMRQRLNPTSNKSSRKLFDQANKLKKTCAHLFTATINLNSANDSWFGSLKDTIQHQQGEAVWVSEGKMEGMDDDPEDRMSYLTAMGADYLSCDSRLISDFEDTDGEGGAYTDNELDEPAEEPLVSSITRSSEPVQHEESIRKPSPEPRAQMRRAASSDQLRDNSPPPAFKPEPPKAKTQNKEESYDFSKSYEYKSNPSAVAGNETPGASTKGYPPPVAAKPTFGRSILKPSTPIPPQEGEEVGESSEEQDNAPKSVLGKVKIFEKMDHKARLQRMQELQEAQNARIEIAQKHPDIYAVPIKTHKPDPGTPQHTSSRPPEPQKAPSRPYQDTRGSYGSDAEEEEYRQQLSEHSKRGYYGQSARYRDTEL

B1: Ataxin-2-like protein (protein, UniProt Q8WWM7 1-1075)
chain: MLKPQPLQQPSQPQQPPPTQQAVARRPPGGTSPPNGGLPGPLATSAAPPGPPAAASPCLGPVAAAGSGLRRGAEGILAPQPPPPQQHQERPGAAAIGSARGQSTGKGPPQSPVFEGVYNNSRMLHFLTAVVGSTCDVKVKNGTTYEGIFKTLSSKFELAVDAVHRKASEPAGGPRREDIVDTMVFKPSDVMLVHFRNVDFNYATKDKFTDSAIAMNSKVNGEHKEKVLQRWEGGDSNSDDYDLESDMSNGWDPNEMFKFNEENYGVKTTYDSSLSSYTVPLEKDNSEEFRQRELRAAQLAREIESSPQYRLRIAMENDDGRTEEEKHSAVQRQGSGRESPSLASREGKYIPLPQRVREGPRGGVRCSSSRGGRPGLSSLPPRGPHHLDNSSPGPGSEARGINGGPSRMSPKAQRPLRGAKTLSSPSNRPSGETSVPPPPAVGRMYPPRSPKSAAPAPISASCPEPPIGSAVPTSSASIPVTSSVSDPGVGSISPASPKISLAPTDVKELSTKEPGRTLEPQELARIAGKVPGLQNEQKRFQLEELRKFGAQFKLQPSSSPENSLDPFPPRILKEEPKGKEKEVDGLLTSEPMGSPVSSKTESVSDKEDKPPLAPSGGTEGPEQPPPPCPSQTGSPPVGLIKGEDKDEGPVAEQVKKSTLNPNAKEFNPTKPLLSVNKSTSTPTSPGPRTHSTPSIPVLTAGQSGLYSPQYISYIPQIHMGPAVQAPQMYPYPVSNSVPGQQGKYRGAKGSLPPQRSDQHQPASAPPMMQAAAAAGPPLVAATPYSSYIPYNPQQFPGQPAMMQPMAHYPSQPVFAPMLQSNPRMLTSGSHPQAIVSSSTPQYPSAEQPTPQALYATVHQSYPHHATQLHAHQPQPATTPTGSQPQSQHAAPSPVQHQAGQAPHLGSGQPQQNLYHPGALTGTPPSLPPGPSAQSPQSSFPQPAAVYAIHHQQLPHGFTNMAHVTQAHVQTGITAAPPPHPGAPHPPQVMLLHPPQSHGGPPQGAVPQSGVPALSASTPSPYPYIGHPQGEQPGQAPGFPGGADDRIREFSLAGGIWHGRAEGLQVGQDARVLGGE
B2: DExH-Box Helicase 29 (protein, UniProt Q7Z478 1-1369)
chain: MGGKNKKHKAPAAAVVRAAVSASRAKSAEAGIAGEAQSKKPVSRPATAAAAAAGSREPRVKQGPKIYSFNSTNDSSGPANLDKSILKVVINNKLEQRIIGVINEHKKQNNDKGMISGRLTAKKLQDLYMALQAFSFKTKDIEDAMTNTLLYGGDLHSALDWLCLNLSDDALPEGFSQEFEEQQPKSRPKFQSPQIQATISPPLQPKTKTYEEDPKSKPKKEEKNMEVNMKEWILRYAEQQNEEEKNENSKSLEEEEKFDPNERYLHLAAKLLDAKEQAATFKLEKNKQGQKEAQEKIRKFQREMETLEDHPVFNPAMKISHQQNERKKPPVATEGESALNFNLFEKSAAATEEEKDKKKEPHDVRNFDYTARSWTGKSPKQFLIDWVRKNLPKSPNPSFEKVPVGRYWKCRVRVIKSEDDVLVVCPTILTEDGMQAQHLGATLALYRLVKGQSVHQLLPPTYRDVWLEWSDAEKKREELNKMETNKPRDLFIAKLLNKLKQQQQQQQQHSENKRENSEDPEESWENLVSDEDFSALSLESANVEDLEPVRNLFRKLQSTPKYQKLLKERQQLPVFKHRDSIVETLKRHRVVVVAGETGSGKSTQVPHFLLEDLLLNEWEASKCNIVCTQPRRISAVSLANRVCDELGCENGPGGRNSLCGYQIRMESRACESTRLLYCTTGVLLRKLQEDGLLSNVSHVIVDEVHERSVQSDFLLIILKEILQKRSDLHLILMSATVDSEKFSTYFTHCPILRISGRSYPVEVFHLEDIIEETGFVLEKDSEYCQKFLEEEEEVTINVTSKAGGIKKYQEYIPVQTGAHADLNPFYQKYSSRTQHAILYMNPHKINLDLILELLAYLDKSPQFRNIEGAVLIFLPGLAHIQQLYDLLSNDRRFYSERYKVIALHSILSTQDQAAAFTLPPPGVRKIVLATNIAETGITIPDVVFVIDTGRTKENKYHESSQMSSLVETFVSKASALQRQGRAGRVRDGFCFRMYTRERFEGFMDYSVPEILRVPLEELCLHIMKCNLGSPEDFLSKALDPPQLQVISNAMNLLRKIGACELNEPKLTPLGQHLAALPVNVKIGKMLIFGAIFGCLDPVATLAAVMTEKSPFTTPIGRKDEADLAKSALAMADSDHLTIYNAYLGWKKARQEGGYRSEITYCRRNFLNRTSLLTLEDVKQELIKLVKAAGFSSSTTSTSWEGNRASQTLSFQEIALLKAVLVAGLYDNVGKIIYTKSVDVTEKLACIVETAQGKAQVHPSSVNRDLQTHGWLLYQEKIRYARVYLRETTLITPFPVLLFGGDIEVQHRERLLSIDGWIYFQAPVKIAVIFKQLRVLIDSVLRKKLENPKMSLENDKILQIITELIKTENN

No constants are given. Whether binding was seen depends on the method and setting. In cells and extracts the contact can be indirect. Here binding means that the protein was enriched with, or labelled near, the bait; the list need not be complete. For some of these results: A no says only that the protein was not detected with the bait.

The first test addresses Annexin A2 (human (endogenous in MDA-MB-231)) (UniProt P07355). Nature of the test: affinity purification with mass spectrometry; anti-Annexin A2 antibody (ab41803) and protein G agarose beads in pre-cleared MDA-MB-231 lysate overnight at 4°C; cells grown on uncoated or collagen-I-coated plates; proteins of the no-antibody blank subtracted; cut-off of 4 or more peptide matches.
In the case of “Heat Shock Protein Family A (Hsp70) Member 8 (from UniProt P11142 1-646)”, the binding result is “binds”.

On to “fibronectin (from UniProt P02751 32-2477)”, for which the binding result is reported as “binds”.

For “Thrombospondin-1 (from UniProt P07996 19-1170)”, the binding result was “binds”.

Keratin 17 (from UniProt Q04695 1-432): the binding entry is on record as “binds”.

As to “Desmoplakin (from UniProt P15924 1-2871)”, the binding entry is “binds”.

Take “Cytoskeleton-associated protein 5 (from UniProt Q14008 1-2032)”: the binding entry is reported as “binds”.

As for “Tight junction protein ZO-2 (from UniProt Q9UDY2 1-1190)”, the binding result is “binds”.

Turning to B1, the binding entry is given as “binds”.

B2: the binding result was “binds”.

Another test has the same target. Nature of the test: condition: only cells plated on uncoated plastic, without collagen-I; affinity purification with mass spectrometry; as a1, only the sample from cells grown on uncoated plates (no collagen-I).
On to Keratin 17 (from UniProt Q04695 1-432), for which the binding result is on record as “no binding”.
